According to the supplement of paper PMC7666118:
This is one part of the list.

Sequences of proteins named here, by UniProt entry; tags and fusion partners are left off. A change or cut given only in a name is not applied to a line headed by its entry.
UniProt O75746: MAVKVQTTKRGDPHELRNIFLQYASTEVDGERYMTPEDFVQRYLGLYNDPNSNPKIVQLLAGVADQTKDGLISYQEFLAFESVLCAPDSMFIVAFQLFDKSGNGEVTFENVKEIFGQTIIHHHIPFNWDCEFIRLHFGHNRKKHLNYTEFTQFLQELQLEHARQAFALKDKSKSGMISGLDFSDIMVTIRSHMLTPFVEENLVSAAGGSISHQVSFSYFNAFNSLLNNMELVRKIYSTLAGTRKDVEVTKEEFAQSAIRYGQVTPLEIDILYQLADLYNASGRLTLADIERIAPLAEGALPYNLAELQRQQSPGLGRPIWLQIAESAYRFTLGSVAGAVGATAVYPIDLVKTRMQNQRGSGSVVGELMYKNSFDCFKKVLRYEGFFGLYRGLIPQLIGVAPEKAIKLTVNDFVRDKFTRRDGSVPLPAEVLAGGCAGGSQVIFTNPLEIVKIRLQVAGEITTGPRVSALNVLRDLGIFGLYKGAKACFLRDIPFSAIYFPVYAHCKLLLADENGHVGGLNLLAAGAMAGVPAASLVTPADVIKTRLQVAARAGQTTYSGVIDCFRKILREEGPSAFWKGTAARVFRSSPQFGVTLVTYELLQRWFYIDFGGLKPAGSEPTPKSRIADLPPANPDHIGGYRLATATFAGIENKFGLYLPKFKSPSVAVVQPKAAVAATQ
UniProt Q9BWU0: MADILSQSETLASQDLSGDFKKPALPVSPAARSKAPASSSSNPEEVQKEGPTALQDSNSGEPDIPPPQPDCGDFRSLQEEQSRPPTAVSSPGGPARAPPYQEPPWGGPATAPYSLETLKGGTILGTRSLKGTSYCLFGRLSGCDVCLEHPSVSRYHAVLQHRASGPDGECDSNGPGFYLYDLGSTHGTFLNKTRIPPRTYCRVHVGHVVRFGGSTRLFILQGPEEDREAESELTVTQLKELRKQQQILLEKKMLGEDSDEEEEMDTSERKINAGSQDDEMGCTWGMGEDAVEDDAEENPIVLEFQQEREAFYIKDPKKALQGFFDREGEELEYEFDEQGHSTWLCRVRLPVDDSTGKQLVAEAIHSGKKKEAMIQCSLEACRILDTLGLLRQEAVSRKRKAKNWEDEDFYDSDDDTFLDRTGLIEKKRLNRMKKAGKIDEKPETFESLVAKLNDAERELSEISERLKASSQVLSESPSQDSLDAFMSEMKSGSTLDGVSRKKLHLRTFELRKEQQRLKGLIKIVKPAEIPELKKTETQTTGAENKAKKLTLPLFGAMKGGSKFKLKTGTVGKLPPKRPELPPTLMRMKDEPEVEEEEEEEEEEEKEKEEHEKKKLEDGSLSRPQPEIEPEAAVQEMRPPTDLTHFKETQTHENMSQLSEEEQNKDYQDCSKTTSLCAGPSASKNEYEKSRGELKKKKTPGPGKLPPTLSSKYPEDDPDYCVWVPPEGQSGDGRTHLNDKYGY
UniProt Q96A46: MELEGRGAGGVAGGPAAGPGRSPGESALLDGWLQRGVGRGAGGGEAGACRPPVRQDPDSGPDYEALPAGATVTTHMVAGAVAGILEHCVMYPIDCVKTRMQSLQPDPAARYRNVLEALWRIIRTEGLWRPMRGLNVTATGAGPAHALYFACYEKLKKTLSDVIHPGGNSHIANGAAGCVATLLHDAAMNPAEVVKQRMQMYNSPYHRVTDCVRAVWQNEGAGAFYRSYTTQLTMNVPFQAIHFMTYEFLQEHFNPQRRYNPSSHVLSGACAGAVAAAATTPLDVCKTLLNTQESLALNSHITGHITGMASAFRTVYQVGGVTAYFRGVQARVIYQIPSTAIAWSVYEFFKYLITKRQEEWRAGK
UniProt Q9Y3B4: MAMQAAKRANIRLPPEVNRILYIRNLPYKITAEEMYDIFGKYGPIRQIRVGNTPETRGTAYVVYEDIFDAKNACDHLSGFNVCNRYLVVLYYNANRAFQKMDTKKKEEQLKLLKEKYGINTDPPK
UniProt P52569: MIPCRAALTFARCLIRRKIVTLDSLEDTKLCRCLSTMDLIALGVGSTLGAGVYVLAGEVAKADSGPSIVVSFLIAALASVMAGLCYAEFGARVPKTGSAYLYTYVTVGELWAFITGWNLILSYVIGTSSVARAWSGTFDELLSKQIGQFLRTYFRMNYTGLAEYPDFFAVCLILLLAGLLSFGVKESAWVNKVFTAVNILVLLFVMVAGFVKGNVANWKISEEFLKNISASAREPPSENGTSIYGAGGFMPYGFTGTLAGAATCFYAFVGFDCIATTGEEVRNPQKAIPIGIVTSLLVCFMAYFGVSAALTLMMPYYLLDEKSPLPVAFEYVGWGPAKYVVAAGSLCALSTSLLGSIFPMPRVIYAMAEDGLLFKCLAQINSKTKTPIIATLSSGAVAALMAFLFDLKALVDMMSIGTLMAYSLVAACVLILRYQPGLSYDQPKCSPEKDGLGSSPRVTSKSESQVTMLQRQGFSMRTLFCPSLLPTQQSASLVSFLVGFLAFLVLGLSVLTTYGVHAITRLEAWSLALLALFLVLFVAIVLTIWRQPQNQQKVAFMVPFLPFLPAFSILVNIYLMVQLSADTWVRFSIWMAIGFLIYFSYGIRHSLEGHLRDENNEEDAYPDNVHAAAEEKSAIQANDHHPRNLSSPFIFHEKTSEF
UniProt Q53H47: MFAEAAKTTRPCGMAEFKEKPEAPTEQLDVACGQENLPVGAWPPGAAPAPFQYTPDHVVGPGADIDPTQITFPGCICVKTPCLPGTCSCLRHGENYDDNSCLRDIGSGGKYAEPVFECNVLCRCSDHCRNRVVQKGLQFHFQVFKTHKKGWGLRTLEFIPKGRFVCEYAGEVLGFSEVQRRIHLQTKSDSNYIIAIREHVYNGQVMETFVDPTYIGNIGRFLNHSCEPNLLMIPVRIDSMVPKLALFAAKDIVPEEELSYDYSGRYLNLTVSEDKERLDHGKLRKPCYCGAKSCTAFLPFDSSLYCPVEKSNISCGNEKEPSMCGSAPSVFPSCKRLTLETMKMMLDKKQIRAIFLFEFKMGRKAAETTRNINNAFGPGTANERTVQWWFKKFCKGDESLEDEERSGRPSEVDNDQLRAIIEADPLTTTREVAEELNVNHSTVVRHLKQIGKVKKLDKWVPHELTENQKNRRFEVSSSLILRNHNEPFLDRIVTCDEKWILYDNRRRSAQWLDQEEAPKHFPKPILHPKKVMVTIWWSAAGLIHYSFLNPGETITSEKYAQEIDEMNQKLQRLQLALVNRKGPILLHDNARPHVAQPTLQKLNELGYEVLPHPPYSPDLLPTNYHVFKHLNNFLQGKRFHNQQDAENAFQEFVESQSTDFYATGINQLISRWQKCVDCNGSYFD
UniProt P31641: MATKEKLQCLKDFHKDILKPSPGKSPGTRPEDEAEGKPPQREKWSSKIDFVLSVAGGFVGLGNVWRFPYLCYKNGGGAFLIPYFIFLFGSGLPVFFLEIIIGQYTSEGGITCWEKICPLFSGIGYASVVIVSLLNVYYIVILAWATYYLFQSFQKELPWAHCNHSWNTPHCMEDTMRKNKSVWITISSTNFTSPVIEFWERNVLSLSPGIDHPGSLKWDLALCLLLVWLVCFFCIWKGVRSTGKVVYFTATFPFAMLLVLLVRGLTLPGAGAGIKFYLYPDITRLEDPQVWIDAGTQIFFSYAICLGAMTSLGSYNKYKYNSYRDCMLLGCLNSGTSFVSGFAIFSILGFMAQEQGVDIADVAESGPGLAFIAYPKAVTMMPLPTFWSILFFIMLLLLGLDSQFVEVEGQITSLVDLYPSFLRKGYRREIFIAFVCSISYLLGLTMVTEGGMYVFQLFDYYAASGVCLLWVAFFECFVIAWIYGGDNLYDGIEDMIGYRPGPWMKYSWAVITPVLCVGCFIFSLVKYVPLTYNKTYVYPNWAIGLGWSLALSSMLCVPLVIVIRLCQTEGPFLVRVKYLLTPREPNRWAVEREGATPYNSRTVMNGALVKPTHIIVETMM
UniProt P50443: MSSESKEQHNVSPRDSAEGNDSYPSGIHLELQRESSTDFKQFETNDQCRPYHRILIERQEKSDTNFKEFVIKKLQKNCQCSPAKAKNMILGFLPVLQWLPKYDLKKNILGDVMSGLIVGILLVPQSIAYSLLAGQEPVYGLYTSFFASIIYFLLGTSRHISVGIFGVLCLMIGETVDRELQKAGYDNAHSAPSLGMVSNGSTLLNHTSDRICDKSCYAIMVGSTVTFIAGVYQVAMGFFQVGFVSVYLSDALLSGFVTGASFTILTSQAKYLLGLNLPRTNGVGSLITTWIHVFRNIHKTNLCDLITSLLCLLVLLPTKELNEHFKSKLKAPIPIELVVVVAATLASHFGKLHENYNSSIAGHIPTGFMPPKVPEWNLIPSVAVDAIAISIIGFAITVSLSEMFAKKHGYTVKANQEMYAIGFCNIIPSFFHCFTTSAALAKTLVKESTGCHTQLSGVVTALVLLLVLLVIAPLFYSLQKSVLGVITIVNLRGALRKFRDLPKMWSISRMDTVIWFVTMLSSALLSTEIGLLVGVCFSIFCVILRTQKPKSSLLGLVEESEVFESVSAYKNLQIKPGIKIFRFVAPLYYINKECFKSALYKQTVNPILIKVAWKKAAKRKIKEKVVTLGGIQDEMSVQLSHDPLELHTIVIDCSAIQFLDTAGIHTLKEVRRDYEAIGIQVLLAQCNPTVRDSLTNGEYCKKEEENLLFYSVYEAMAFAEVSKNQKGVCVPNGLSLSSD

Compound: COc1ccc(Cn2ccc3cc(C)c(C(=O)NO)cc32)cc1
Assay: dose-dependent thermal stabilisation call (2D-TPP, DLPTP, 10% FDR) (binary (1 = stabilised)); higher = stabilised by the compound
Conditions: system: HL-60 intact cells; concentration range 0.04-10 µM
Method: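 2D thermal proteome profiling in intact HL-60 cells treated with BRD-3811 (0, 0.04, 0.29, 2, 10 uM) for 90 min at 37 C, then heated 3 min at one of 12 temperatures (42-63.9 C). Soluble protein was quantified by TMT10 MS. The value is the DLPTP call of the paper: dose-dependent thermal stabilisation over all temperatures at 10% FDR (F-test of a dose-response against a flat model); one experiment, one call per tested protein.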

Target | dose-dependent thermal stabilisation call
SLC25A12 (UniProt O75746) | inactive: 0
SLC4A1AP (UniProt Q9BWU0) | inactive: 0
SLC25A28 (UniProt Q96A46) | inactive: 0
SF3B14 (UniProt Q9Y3B4) | inactive: 0
SLC7A2 (UniProt P52569) | inactive: 0
SETMAR (UniProt Q53H47) | inactive: 0
SLC6A6 (UniProt P31641) | inactive: 0
SLC26A2 (UniProt P50443) | inactive: 0
